{"source": "patent EP3231454B1", "about": "“BONE CEMENT COMPRISING MICROENCAPSULATED ANTIMICROBIAL” (UNIVERSIDAD PONTIFICIA COMILLAS, priority 2016, dated 2017)", "origin": "cited, not measured here", "test_system": "Staphylococcus aureus", "note": "At least one compound was matched to its structure with a doubt left.", "data": [{"compound": "CO[C@H]1/C=C/O[C@@]2(C)Oc3c(C)c(O)c4c(O)c(c(/C=N/N5CCN(C)CC5)c(O)c4c3C2=O)NC(=O)/C(C)=C\\C=C\\[C@H](C)[C@H](O)[C@@H](C)[C@@H](O)[C@@H](C)[C@H](OC(C)=O)[C@@H]1C", "note": "[rifampicin]", "values": [{"measurement": "MIC", "result": 8, "unit": "ng/mL"}]}]}
